Measured values as given in the supplement of paper PMC9015667.
Where a name gives a salt, the structure may show the parent alone. Some of the results follow. Repeats are few or missing, and single values can be far off.

The compounds below were run on M229P (parental melanoma line) (assay: reduction in cell viability relative to untreated/vehicle; higher = more growth inhibition). Settings: 200 nM; 72 h.

Structure (SMILES) | reduction in cell viability [%]
Nc1ccccc1NC(=O)c1ccc(CNc2nccc(-c3cccnc3)n2)cc1 [Mocetinostat] | 4.67
O=C1c2c(O)cc(O)cc2OC(c2ccc(O)c(O)c2)C1O (centres undefined) [Taxifolin] | < 0
CS(=O)(=O)Oc1ccc2c(NC(N)=O)c(C(=O)c3ccc(Cl)cc3Cl)oc2c1 [Lirimilast] | < 0
CC1CNc2c(cccc2S(=O)(=O)N[C@@H](CCCNC(=N)N)C(=O)N2CC[C@@H](C)C[C@@H]2C(=O)O)C1 (some centres undefined) [Argatroban] | < 0
NC(=O)c1ncn([C@@H]2O[C@H](CO)[C@@H](O)[C@H]2O)n1 [Ribavirin] | < 0
CC(C)C[C@H](NC(=O)[C@@H](O)[C@H](N)Cc1ccccc1)C(=O)O [Ubenimex] | < 0
O=C(NCc1ccccc1)[C@H](Cc1ccccc1)NC(=O)[C@H]1O[C@@H]1C(=O)NCCc1ccc(O)cc1 | < 0
Cc1c(C(=O)NN2CCCCC2)nn(-c2ccc(Cl)cc2Cl)c1-c1ccc(Cl)cc1 [Rimonabant] | < 0
CC1(C)NC(=O)N(c2ccc([N+](=O)[O-])c(C(F)(F)F)c2)C1=O [Nilutamide] | < 0
Cc1csc(-c2nnc(Nc3ccc(Oc4ncccc4-c4ccnc(N)n4)cc3)c3ccccc23)c1 | < 0
c1cc(-c2sc(-c3ccncc3)c(-c3ccncc3)c2-c2ccncc2)ccn1 | < 0
c1ccc(CNc2nc(NCc3ccccc3)c3ccccc3n2)cc1 | < 0
O=C1NC(=O)/C(=C/c2ccc(-c3ccc(F)cc3O)o2)S1 | < 0
CC(=O)OCC(=O)[C@@]12N=C(C)O[C@@H]1C[C@H]1[C@@H]3CCC4=CC(=O)C=C[C@]4(C)[C@H]3[C@@H](O)C[C@@]12C [Deflazacort] | < 0
CN(N=O)C(=O)N[C@@H](C=O)[C@@H](O)[C@H](O)[C@H](O)CO [Streptozocin] | < 0
C=CC(=O)Nc1cccc(Oc2nc(Nc3ccc(N4CCN(C)CC4)cc3OC)ncc2Cl)c1 | < 0
COc1c(C)c2c(c(O)c1C/C=C(\C)CCC(=O)OCCN1CCOCC1)C(=O)OC2 [Mycophenolate mofetil] | 9.7
CN1C(=O)C[C@@H](C(=O)N[C@@H](Cc2c[nH]cn2)C(=O)N2CCC[C@H]2C(N)=O)NC1=O [Taltirelin] | < 0
CCC(C)N(C)C(=O)c1cc2ccccc2c(-c2ccccc2Cl)n1 (centres undefined) | < 0
COc1cccc(-c2ccc(NC(=O)C3=C(C(=O)O)CCC3)c(F)c2)c1 [Vidofludimus] | < 0

Structure (SMILES) | reduction in cell viability [%]
CCOCC(O)COc1ccc(NC(=O)CC[S+](C)C)cc1 (centres undefined) [Suplatast tosilate] | < 0
CCN(C(=O)c1c(O)c2c(Cl)cccc2n(C)c1=O)c1ccccc1 [Laquinimod] | < 0
CC[C@H]1OC(=O)[C@H](C)[C@@H](O[C@H]2C[C@@](C)(OC)[C@@H](O)[C@H](C)O2)[C@H](C)[C@@H](O[C@@H]2O[C@H](C)C[C@H](N(C)C)[C@H]2O)[C@](C)(O)C[C@@H](C)C(=O)[C@H](C)[C@@H](O)[C@]1(C)O [Erythromycin] | < 0
CN(C)Cc1cccc(N=C(c2ccccc2)c2c(O)[nH]c3cc(C(=O)N(C)C)ccc23)c1 | < 0
COc1ccc(-c2ccc3ncc4c(c3c2)n(-c2ccc(N3CCNCC3)c(C(F)(F)F)c2)c(=O)n4C)cn1 | 91.7
COc1c(OCCCN2CCOCC2)ccc2c1N=C(NC(=O)c1cnc(N)nc1)N1CCN=C21 | < 0
COc1cc(C(=O)NC2CCN(C)CC2)ccc1Nc1ncc2c(n1)N(C1CCCC1)CCC(=O)N2C(C)C | < 0
CN1CCC(=C2c3ccccc3C=Cc3ccccc32)CC1 [Cyproheptadine hydrochloride] | < 0
CC[C@@]1(O)C(=O)OCc2c1cc1n(c2=O)Cc2cc3cc(O)ccc3nc2-1 [10-hydroxycamptothecin] | < 0
Nc1nc(-c2nn(Cc3ccccc3F)c3ncccc23)nc(N)c1N1CCOCC1 | < 0
CS(=O)(=O)Nc1ccc([N+](=O)[O-])cc1Oc1ccccc1 [Nimesulide] | < 0
CC(C)[N+]1(C)[C@@H]2CC[C@H]1C[C@@H](OC(=O)C(CO)c1ccccc1)C2 (some centres undefined) [Ipratropium bromide hydrate] | < 0
CCCCCNC(=N)N/N=C/c1c[nH]c2ccc(OC)cc12 [Tegaserod maleate] | < 0
COc1ccc2c(c1)c(CC(=O)O)c(C)n2C(=O)c1ccc(Cl)cc1 [Indomethacin] | < 0
C[C@H](NC(=O)c1sccc1OCc1ccc(Cl)cc1)c1ccccc1 | < 0
CN(C)CCN1C(=O)c2cccc3cc(N)cc(c23)C1=O [Amonafide] | < 0
CCCn1c(=O)c2nc(C34CC5CC(CC3C5)C4)[nH]c2n(CCC)c1=O [Rolofylline] | < 0
CNC(C)C1CCC(N)C(OC2C(N)CC(N)C(OC3OCC(C)(O)C(NC)C3O)C2O)O1 (centres undefined) [Gentamycin sulfate] | < 0
CCCCCCNC(=O)n1cc(F)c(=O)[nH]c1=O [Carmofur] | < 0

Taken from above.
Value for Nc1nc(-c2nn(Cc3ccccc3F)c3ncccc23)nc(N)c1N1CCOCC1 under reduction in cell viability [%]: < 0
Value for CN(C)Cc1cccc(N=C(c2ccccc2)c2c(O)[nH]c3cc(C(=O)N(C)C)ccc23)c1 under reduction in cell viability [%]: < 0
